PMC7994790
Results are given in words; binding and its absence hold for the method and conditions named. Binding seen in cells or lysates may run through a third protein. Binding calls can cover weak binding; strength is not graded here. Tags and fused reporters may be left off the sequences shown.

Target: T1, Flag-ETAA1 / HA-ETAA1 (UniProt Q9NY74)
T1 sequence: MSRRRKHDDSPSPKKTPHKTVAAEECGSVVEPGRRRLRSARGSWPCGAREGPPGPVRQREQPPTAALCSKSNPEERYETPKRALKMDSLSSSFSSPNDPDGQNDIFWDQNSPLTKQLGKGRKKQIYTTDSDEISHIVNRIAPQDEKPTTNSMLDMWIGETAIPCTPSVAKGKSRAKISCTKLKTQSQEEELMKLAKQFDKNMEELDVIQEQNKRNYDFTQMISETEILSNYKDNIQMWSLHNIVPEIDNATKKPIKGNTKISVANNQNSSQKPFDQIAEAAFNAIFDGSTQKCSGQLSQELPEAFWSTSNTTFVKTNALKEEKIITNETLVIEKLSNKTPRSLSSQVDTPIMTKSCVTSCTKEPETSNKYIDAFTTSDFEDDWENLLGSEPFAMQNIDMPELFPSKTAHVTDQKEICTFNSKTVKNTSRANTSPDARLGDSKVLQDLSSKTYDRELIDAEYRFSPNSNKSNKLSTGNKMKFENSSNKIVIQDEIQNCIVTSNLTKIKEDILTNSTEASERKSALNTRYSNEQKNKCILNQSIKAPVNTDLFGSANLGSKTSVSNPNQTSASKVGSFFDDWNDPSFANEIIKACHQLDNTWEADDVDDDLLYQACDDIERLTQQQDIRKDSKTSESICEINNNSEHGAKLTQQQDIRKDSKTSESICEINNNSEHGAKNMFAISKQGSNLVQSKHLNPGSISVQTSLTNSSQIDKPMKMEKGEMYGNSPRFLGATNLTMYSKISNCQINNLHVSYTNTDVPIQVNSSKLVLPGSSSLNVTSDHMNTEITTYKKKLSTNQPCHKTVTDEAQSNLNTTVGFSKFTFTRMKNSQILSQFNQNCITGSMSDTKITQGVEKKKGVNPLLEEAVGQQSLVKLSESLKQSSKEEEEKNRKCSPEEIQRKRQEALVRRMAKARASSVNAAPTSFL
Assay: co-IP; HEK293T cells transfected; NP-40 lysis buffer (in some experiments 0.75% CHAPS); anti-Flag M2 affinity gel or anti-HA agarose, 1–2 h at 4 °C; immunoblot; no AP20187 system

HA-ETAA1 ΔRPA (from UniProt Q9NY74)
binding: binds
